Source: the supplement of paper PMC10849652
Some of the results follow.

Chains of the proteins cited; added tags and fusions are not shown. Lines headed by an entry give the natural chain unless they say otherwise; changes in a name come on top.
UniProt Q8WUB8: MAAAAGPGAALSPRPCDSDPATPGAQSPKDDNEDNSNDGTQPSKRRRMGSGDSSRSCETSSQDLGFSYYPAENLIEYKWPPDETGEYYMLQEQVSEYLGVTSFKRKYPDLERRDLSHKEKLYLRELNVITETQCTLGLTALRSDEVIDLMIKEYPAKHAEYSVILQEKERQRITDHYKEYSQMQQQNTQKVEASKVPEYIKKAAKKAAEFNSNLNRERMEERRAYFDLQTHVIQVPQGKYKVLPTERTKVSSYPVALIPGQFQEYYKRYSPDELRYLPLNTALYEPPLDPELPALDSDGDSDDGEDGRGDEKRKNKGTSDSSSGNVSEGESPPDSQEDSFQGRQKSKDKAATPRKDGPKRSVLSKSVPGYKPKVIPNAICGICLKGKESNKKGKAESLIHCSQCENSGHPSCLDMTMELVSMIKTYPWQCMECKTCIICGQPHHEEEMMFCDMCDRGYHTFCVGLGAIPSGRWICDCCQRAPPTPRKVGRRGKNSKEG
UniProt P19174: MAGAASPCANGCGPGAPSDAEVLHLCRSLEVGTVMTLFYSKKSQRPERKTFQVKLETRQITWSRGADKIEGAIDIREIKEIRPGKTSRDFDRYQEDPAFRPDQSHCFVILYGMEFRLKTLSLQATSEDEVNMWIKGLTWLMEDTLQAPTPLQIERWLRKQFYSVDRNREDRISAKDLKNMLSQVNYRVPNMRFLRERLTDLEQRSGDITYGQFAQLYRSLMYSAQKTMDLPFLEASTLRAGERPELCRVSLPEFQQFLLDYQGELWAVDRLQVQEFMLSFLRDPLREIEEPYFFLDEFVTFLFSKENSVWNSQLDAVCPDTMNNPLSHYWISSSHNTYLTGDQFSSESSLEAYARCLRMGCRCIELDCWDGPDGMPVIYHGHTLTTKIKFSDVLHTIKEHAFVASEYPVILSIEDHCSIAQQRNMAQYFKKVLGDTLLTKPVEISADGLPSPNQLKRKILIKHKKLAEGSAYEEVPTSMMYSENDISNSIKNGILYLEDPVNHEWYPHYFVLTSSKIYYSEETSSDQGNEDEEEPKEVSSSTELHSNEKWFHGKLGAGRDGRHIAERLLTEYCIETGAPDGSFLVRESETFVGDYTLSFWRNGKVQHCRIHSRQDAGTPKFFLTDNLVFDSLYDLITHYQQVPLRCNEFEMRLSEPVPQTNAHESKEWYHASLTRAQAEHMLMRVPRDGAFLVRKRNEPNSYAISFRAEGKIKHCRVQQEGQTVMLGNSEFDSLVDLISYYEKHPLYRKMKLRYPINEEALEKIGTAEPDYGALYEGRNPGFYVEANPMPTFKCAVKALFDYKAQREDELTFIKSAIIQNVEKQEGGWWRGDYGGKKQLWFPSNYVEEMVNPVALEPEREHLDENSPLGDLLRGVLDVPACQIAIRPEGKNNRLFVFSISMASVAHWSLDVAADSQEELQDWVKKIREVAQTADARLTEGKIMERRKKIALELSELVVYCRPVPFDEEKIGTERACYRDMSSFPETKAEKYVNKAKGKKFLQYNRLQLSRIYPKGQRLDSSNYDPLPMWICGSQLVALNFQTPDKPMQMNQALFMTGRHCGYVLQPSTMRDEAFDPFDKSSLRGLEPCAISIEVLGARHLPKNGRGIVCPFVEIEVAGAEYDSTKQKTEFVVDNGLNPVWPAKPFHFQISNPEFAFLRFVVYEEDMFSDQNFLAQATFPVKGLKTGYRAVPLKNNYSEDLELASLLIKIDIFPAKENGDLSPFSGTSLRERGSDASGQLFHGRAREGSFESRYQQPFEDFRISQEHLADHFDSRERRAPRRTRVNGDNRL
UniProt Q15149: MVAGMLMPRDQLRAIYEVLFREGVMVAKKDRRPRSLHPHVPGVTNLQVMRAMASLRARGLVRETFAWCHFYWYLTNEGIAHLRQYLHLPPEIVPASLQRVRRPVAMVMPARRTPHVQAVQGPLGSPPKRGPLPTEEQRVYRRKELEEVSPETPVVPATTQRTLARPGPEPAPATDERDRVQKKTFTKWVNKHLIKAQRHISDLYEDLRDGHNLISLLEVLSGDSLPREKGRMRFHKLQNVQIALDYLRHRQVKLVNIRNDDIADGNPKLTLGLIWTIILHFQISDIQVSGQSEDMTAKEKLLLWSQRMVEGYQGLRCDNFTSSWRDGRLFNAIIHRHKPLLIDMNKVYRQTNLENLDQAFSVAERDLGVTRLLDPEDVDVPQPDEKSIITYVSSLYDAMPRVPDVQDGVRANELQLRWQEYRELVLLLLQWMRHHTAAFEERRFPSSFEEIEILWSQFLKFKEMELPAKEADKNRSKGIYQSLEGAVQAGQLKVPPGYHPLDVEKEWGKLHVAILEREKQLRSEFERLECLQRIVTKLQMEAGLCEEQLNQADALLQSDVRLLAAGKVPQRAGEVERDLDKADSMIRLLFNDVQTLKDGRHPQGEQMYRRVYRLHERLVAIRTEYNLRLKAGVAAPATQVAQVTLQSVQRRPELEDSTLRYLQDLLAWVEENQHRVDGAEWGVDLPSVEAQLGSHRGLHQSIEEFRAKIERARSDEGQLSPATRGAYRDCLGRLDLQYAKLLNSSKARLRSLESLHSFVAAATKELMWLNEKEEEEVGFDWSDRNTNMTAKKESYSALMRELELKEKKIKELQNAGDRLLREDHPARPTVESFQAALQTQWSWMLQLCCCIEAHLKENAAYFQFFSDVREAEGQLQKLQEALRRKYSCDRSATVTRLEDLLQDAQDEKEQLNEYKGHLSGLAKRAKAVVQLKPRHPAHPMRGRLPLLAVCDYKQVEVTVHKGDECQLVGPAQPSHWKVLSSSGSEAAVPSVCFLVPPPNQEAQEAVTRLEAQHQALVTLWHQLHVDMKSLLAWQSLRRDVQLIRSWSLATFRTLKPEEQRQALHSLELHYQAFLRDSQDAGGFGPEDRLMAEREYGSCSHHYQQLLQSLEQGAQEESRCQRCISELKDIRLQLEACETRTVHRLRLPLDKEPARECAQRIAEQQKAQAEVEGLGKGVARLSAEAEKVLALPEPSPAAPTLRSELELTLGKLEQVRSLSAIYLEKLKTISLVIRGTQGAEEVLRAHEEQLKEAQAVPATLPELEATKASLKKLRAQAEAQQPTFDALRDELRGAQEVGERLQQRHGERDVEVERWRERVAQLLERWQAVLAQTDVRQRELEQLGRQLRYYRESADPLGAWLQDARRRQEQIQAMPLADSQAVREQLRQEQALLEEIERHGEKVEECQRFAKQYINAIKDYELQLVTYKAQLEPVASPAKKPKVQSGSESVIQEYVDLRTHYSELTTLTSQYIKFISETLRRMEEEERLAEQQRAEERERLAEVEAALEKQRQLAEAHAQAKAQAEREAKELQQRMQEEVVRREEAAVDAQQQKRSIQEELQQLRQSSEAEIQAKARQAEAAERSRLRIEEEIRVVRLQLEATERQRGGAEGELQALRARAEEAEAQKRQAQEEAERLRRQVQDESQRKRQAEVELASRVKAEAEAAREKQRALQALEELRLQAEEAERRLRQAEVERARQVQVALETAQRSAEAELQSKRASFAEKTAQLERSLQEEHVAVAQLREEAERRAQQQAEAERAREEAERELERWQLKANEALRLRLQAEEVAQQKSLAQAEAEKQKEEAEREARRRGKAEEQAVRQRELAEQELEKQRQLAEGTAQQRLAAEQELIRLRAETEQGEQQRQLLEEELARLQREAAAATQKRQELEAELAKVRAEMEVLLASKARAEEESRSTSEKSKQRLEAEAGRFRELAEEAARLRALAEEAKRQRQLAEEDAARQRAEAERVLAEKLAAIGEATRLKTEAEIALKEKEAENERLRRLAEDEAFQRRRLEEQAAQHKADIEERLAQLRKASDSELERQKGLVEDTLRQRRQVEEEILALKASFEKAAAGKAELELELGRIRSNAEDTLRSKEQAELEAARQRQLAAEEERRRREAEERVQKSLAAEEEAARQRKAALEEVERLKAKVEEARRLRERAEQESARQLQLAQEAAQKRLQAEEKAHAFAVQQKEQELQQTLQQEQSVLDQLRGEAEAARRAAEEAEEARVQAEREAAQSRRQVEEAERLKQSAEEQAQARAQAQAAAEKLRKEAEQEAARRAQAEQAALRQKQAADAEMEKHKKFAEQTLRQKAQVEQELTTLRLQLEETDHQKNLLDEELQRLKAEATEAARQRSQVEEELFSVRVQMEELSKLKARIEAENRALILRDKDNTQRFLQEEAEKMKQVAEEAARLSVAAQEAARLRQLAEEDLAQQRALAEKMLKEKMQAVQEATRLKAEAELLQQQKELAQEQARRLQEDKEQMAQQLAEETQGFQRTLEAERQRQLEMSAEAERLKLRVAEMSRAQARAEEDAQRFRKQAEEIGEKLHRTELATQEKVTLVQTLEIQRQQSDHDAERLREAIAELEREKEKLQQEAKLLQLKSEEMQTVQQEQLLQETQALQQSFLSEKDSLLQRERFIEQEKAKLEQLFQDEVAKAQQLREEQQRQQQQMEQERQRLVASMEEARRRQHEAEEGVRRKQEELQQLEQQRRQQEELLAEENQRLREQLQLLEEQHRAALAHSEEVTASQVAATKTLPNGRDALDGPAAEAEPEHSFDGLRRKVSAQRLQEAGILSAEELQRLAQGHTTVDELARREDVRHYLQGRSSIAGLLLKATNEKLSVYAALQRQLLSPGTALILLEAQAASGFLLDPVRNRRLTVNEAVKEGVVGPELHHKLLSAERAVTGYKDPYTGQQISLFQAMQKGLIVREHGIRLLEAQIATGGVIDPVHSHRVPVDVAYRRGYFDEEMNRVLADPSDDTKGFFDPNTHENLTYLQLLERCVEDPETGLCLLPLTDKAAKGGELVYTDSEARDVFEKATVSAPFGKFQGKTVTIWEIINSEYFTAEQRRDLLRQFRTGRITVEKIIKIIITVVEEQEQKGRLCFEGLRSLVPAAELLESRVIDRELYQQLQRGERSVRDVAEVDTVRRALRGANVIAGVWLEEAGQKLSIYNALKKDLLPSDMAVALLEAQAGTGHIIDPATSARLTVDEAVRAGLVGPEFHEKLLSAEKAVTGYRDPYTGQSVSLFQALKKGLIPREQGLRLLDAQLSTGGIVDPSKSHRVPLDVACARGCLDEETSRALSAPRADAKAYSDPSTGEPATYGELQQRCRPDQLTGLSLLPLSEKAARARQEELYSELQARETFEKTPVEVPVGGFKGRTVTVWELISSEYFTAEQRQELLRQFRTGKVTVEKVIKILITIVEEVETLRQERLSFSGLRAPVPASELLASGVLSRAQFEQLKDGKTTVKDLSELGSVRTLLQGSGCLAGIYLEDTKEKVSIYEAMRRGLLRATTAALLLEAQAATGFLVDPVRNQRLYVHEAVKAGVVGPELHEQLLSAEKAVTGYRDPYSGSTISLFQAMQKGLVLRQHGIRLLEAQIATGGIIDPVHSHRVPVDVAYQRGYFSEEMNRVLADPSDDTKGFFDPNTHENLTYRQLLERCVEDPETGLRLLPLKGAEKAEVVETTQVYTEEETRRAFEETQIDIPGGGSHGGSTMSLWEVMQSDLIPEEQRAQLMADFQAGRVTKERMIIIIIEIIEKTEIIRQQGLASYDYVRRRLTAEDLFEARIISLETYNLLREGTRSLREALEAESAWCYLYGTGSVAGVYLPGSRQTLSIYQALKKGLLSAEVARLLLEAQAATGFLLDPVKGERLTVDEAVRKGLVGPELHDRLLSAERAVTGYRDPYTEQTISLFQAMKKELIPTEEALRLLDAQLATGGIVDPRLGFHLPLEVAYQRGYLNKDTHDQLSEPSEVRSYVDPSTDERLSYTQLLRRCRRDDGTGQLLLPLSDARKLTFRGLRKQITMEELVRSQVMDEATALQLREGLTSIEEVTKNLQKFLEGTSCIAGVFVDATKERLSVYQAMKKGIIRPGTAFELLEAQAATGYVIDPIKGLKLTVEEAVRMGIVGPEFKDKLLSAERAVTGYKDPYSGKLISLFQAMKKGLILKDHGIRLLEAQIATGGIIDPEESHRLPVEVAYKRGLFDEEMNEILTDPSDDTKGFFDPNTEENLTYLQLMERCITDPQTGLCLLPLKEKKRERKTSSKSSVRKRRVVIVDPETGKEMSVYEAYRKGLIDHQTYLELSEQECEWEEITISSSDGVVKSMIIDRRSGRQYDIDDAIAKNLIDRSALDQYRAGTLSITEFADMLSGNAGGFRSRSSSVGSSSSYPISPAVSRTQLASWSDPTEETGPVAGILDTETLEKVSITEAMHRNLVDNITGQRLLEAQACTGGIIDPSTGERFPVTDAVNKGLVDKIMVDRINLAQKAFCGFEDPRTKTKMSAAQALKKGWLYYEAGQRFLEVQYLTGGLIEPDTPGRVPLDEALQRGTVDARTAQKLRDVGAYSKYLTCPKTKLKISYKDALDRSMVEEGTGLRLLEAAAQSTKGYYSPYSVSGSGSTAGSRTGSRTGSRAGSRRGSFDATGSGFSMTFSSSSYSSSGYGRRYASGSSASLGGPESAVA

Key:
Assay in all cases: log2 fold change, soluble protein after heating vs DMSO (PISA); higher = thermal stabilisation; K562 lysate, 10 uM; active = over 0.2 and 3.5 SD of the protein, either way, in both replicates (recomputed)
[1] = compound: C1=CC=C(C=C1)[C@H](COC2=CC3=C(C=C2)NC(=O)N3)NC(=O)C4=CC=CN(C4=O)CC5=CC(=C(C=C5)F)F
How it was run: (§1)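 K562 pellets were dounce-homogenised in PBS pH 7.4 containing 1 mM MgCl2, and the crude extract, at 1 mg/mL protein, was exposed to 10 μM compound for 30 min. Aliquots were heated for 3 min across 48°C-58°C, pooled, brought to 0.5% NP-40 at 4°C and spun at 21,000xg for 90 min, with the supernatant taken as soluble protein. TMTpro 16plex LC-MS/MS with equalised channel sums quantified that protein. Values are log-two fold changes in thermal stability relative to solvent controls, taken from duplicates.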

[2] = compound: CC1=C(SC2=C1C(=N[C@H](C3=NN=C(N32)C)CC(=O)N)C4=CC=C(C=C4)Cl)C
How it was run: as §1

[3] = compound: CC1=C2C(=CC=C1)N=C(N(C2=O)C3=CC=CC=C3C)CN4C=NC5=C(N=CN=C54)N
How it was run: as §1

[4] = compound: Cc1sc2c(c1C)C(c1ccc(Cl)cc1)=N[C@@H](CC(=O)OC(C)(C)C)c1nnc(C)n1-2
How it was run: as §1

[5] = compound: c1ccc([C@@H]2C[C@H]2NC2CCNCC2)cc1
How it was run: as §1

Measured: log2 fold change

PLCH1 (UniProt Q4KWH8)
inactive: [1] -0.018 | [2] 0.099 | [3] -0.069 | [4] -0.009 | [5] 0.089

PIR (UniProt O00625)
inactive: [1] -0.013 | [2] 0.017 | [3] 0.026 | [4] 0.009 | [5] 0.06

PGRMC2 isoform 2 (UniProt O15173)
inactive: [1] 0.038 | [2] 0.037 | [3] 0.007 | [4] -0.024 | [5] -0.008

PIGO (UniProt Q8TEQ8)
inactive: [1] -0.098 | [2] -0.058 | [3] -0.014 | [4] -0.023 | [5] 0.039

PHF10 (UniProt Q8WUB8)
inactive: [1] 0.026 | [2] 0.019 | [3] -0.025 | [4] 0.008 | [5] -0.028

PHAX (UniProt Q9H814)
inactive: [1] 0.026 | [2] 0.014 | [3] -0.014 | [4] -0.027 | [5] 0

PLBD1 (UniProt Q6P4A8)
inactive: [1] -0.026 | [2] 0.014 | [3] -0.012 | [4] -0.099 | [5] -0.06

PKN3 (UniProt Q6P5Z2)
inactive: [1] -0.198 | [2] 0.086 | [3] 0.022 | [4] 0.005 | [5] 0.002

PLCG1 isoform 2 (UniProt P19174)
inactive: [1] 0.051 | [2] 0.027 | [3] -0.002 | [4] -0.054 | [5] 0.033

PHOSPHO2 (UniProt Q8TCD6)
inactive: [1] -0.029 | [2] 0.02 | [3] 0.046 | [4] -0.053 | [5] 0.061

PLA2G4B isoform 6 (UniProt P0C869)
inactive: [1] -0.003 | [2] 0.024 | [3] -0.052 | [4] 0.099 | [5] -0.019

PHB2 (UniProt Q99623)
inactive: [1] -0.007 | [2] 0.021 | [3] -0.007 | [4] -0.005 | [5] -0.021

PLEKHF2 (UniProt Q9H8W4)
inactive: [1] 0.045 | [2] 0.005 | [3] 0.032 | [4] -0.113 | [5] -0.1

PICK1 (UniProt Q9NRD5)
inactive: [1] -0.034 | [2] -0.004 | [3] -0.057 | [4] 0.087 | [5] -0.047

PIP4K2C (UniProt Q8TBX8)
inactive: [1] -0.12 | [2] -0.062 | [3] -0.113 | [4] -0.023 | [5] -0.011

PIK3R2 (UniProt O00459)
inactive: [1] 0.002 | [2] -0.058 | [3] 0.272 | [4] 0.024 | [5] -0.007

PLCB2 (UniProt Q00722)
inactive: [1] -0.083 | [2] -0.13 | [3] -0.071 | [4] 0.106 | [5] 0.017

PI4K2B (UniProt Q8TCG2)
inactive: [1] -0.033 | [2] 0.048 | [3] 0.074 | [4] 0.068 | [5] 0.077

PLCD1 isoform 2 (UniProt P51178)
inactive: [1] 0.021 | [2] -0.031 | [3] -0.001 | [4] 0.008 | [5] 0.016

PICALM (UniProt H0YEH1)
inactive: [1] 0.018 | [2] -0.027 | [3] -0.138 | [4] 0.075 | [5] -0.303

PHGDH (UniProt O43175)
inactive: [1] -0.014 | [2] 0.017 | [3] 0.047 | [4] 0.046 | [5] 0.052

Looked up one by one from the entries so far (two):
PLCD1 isoform 2 (UniProt P51178)
inactive: [1] 0.021 | [2] -0.031 | [3] -0.001 | [4] 0.008 | [5] 0.016

PLCB2 (UniProt Q00722)
inactive: [1] -0.083 | [2] -0.13 | [3] -0.071 | [4] 0.106 | [5] 0.017

Remaining list, next part

PLD1 (UniProt Q13393)
inactive: [1] 0.026 | [2] 0.015 | [3] 0.006 | [4] -0.004 | [5] -0.056

PHKG2 (UniProt P15735)
inactive: [1] 0.039 | [2] -0.038 | [3] -0.037 | [4] -0.002 | [5] -0.022

PLEC isoform 3 (UniProt Q15149)
inactive: [1] -0.08 | [2] 0.054 | [3] 0.123 | [5] 0.032
